The chains are these.
B1: glmS ribozyme (parent)
chain: AUAAAAGCGCCAGAACUACAGAAAUGUAGUUGACGAGGAGGAGGUUUAUCGAAUUUUCGGCGGAUGCCUCCAAA

± gives the standard error. Many entries were measured with a wide error.

Variants of B1 are the subject of the first data set. The data set is described as follows: kcat; higher = faster cleavage; RNA array. The conditions noted are these: with glucosamine-6-phosphate. In short, it runs like this: (§1)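 kobs was derived by fitting per-tile medians to one- or two-exponential decays after normalising signals to baseline and to non-cleaving reference variants. Those signals came from barcoded ribozyme variants transcribed in situ by E. coli RNA polymerase on sequenced MiSeq chips, followed through a hybridised Cy3 probe at 37 °C and imaged over ~14 h. Glucosamine-6-phosphate (40 μM to 10 mM) in HEPES/KCl/Mg(OAc)2 buffer was flowed in. Weighted Michaelis–Menten fits across concentrations then gave kcat and KM.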
As for C10U C67G C68U, the kcat (usually the number of substrate molecules converted per active site and unit of time at saturation) stood at 3.94e-05 ± 2.9e-05 s⁻¹.

As for A15G C71U, the kcat came to 0.00971 ± 0.0089 s⁻¹.

In the case of A53G U54C, the kcat stood at 0.0163 ± 0.0094 s⁻¹.

On to C11U G29A, for which the kcat is 0.000628 ± 0.00013 s⁻¹.

Regarding U56A G59A C68A, the kcat is 2.07e-05 ± 1.1e-05 s⁻¹.

For the variant G37U G51A, the kcat stood at 3.2e-05 ± 1.8e-05 s⁻¹.

Take C34G A64U C67U: the catalytic constant (kcat) was < 1e-05 s⁻¹.

On to A52U U56G, for which the turnover number (kcat) amounted to 0.000175 ± 4.1e-05 s⁻¹.

Turning to A36C U69A, the kcat worked out at 4.83e-05 ± 2.6e-05 s⁻¹.

For the variant C50G U55A, the turnover number (kcat) came out at 4.09e-05 ± 2.9e-05 s⁻¹.

Regarding A15G G41A, the kcat was found to be 0.00216 ± 0.0012 s⁻¹.

On to U54G C61G, for which the kcat was 1.78e-05 ± 5.8e-06 s⁻¹.

Turning to C16G G29U C71U, the kcat worked out at 0.0096 ± 0.006 s⁻¹.

For A52G C61U C68G, the turnover number (kcat) amounted to 6.09e-05 ± 4.1e-05 s⁻¹.

As for U30C U31C, the kcat is 0.00371 ± 0.0019 s⁻¹.

For the variant C16G A42G, the kcat amounted to 0.00662 ± 0.0036 s⁻¹.

Regarding C10U A53G C61A C67G, the turnover number (kcat) worked out at 3.61e-05 ± 2.6e-05 s⁻¹.

As for A6U U45G, the kcat was found to be 0.000193 ± 3.9e-05 s⁻¹.

Turning to A33U A64G, the kcat turned out to be 0.000146 ± 0.00014 s⁻¹.

For the variant A14C U57A U69A, the kcat is 3.51e-05 ± 1.3e-05 s⁻¹.

Turning to G38A U49A C50A A64U U69C, the kcat was determined as 1.95e-05 ± 1.8e-05 s⁻¹.

For the variant C50A C61G C68G, the kcat is 3.41e-05 ± 1.4e-05 s⁻¹.

For G29U A39U, the catalytic constant (kcat) is 0.00585 ± 0.003 s⁻¹.

Consider A42G C50G A64G, for which the kcat was 2.35e-05 ± 1.7e-05 s⁻¹.

In the case of A14G C67A, the kcat came to 0.00934 ± 0.007 s⁻¹.

Take A12U A64G: the turnover number (kcat) is 0.0329 ± 0.027 s⁻¹.

For A15G A53G, the kcat is 0.0414 ± 0.025 s⁻¹.

Consider U47A U54C, for which the kcat is 0.0296 ± 0.024 s⁻¹.

For C16U C58A, the turnover number (kcat) was 0.00179 ± 0.0011 s⁻¹.

For G35U C50G, the catalytic constant (kcat) was found to be 3.86e-05 ± 2.3e-05 s⁻¹.

As for A12C C70U, the turnover number (kcat) is 0.0168 ± 0.0085 s⁻¹.

Take A53U U65A: the catalytic constant (kcat) is 0.005 ± 0.0043 s⁻¹.

Regarding U47A U55A, the kcat is 0.00879 ± 0.0045 s⁻¹.

Regarding U47A U55G, the kcat was 0.0201 ± 0.01 s⁻¹.

With G40U U45C, the catalytic constant (kcat) stood at 0.000451 ± 0.00023 s⁻¹.

In the case of A14G A42G, the kcat turned out to be 0.00853 ± 0.006 s⁻¹.

As to C16U U56G, the catalytic constant (kcat) came out at 0.0206 ± 0.015 s⁻¹.

On to C8U A36G C50A G51A C68U C70A, for which the kcat came out at 4.03e-05 ± 2e-05 s⁻¹.

Regarding G40U U49G, the catalytic constant (kcat) amounted to 8.53e-05 ± 3.1e-05 s⁻¹.

With G29C C71G, the kcat amounted to 8.64e-05 ± 1.2e-05 s⁻¹.

In the case of C16U U30G, the kcat was 0.00537 ± 0.0035 s⁻¹.

As for A12U A36U, the kcat worked out at 2.03e-05 ± 6.7e-07 s⁻¹.

A53G C67A: the turnover number (kcat) was 0.000661 ± 0.0004 s⁻¹.

Take U30C C50A U55G: the kcat came to 3.98e-05 ± 3e-05 s⁻¹.

With C16A U46G A48G C50U C67A, the catalytic constant (kcat) came out at 1.04e-05 ± 4.5e-06 s⁻¹.

Consider U56G G63A, for which the kcat came out at 1.25e-05 ± 9.3e-06 s⁻¹.

As to G41C C67U C70A, the kcat worked out at 5.68e-05 ± 1.2e-05 s⁻¹.

For C11A G62A, the turnover number (kcat) was 1.14e-05 ± 2e-06 s⁻¹.

In another data set the parent is B1. The data set is described as follows: self-cleavage kobs at 40 uM GlcN6P; higher = faster cleavage; RNA array. To be noted: with glucosamine-6-phosphate. The procedure, abridged:
as §1
For C10U C67G C68U, the “self-cleavage kobs at 40 uM GlcN6P” value amounted to 2.54e-05 ± 2e-05 s⁻¹.

Regarding A36C U69A, the “self-cleavage kobs at 40 uM GlcN6P” value was determined as 2.17e-05 ± 1.6e-05 s⁻¹.

For the variant C50G U55A, the “self-cleavage kobs at 40 uM GlcN6P” value came to 2.16e-05 ± 2.1e-05 s⁻¹.

With C10U A53G C61A C67G, the “self-cleavage kobs at 40 uM GlcN6P” value stood at 3.99e-05 ± 3.2e-05 s⁻¹.

With C8U A36G C50A G51A C68U C70A, the “self-cleavage kobs at 40 uM GlcN6P” value came to 3.6e-05 ± 2.3e-05 s⁻¹.

In another data set the parent is B1. The data set is described as follows: self-cleavage kobs at 640 uM GlcN6P; higher = faster cleavage; RNA array. To be noted: with glucosamine-6-phosphate. The procedure, abridged: as §1
For C10U C67G C68U, the “self-cleavage kobs at 640 uM GlcN6P” value is 3.39e-05 ± 2.7e-05 s⁻¹.

Turning to C50G U55A, the “self-cleavage kobs at 640 uM GlcN6P” value was 2.6e-05 ± 1.9e-05 s⁻¹.

As to A33U A64G, the “self-cleavage kobs at 640 uM GlcN6P” value came to 1.98e-05 ± 1.5e-05 s⁻¹.

Turning to G35U C50G, the “self-cleavage kobs at 640 uM GlcN6P” value was determined as 0.000637 ± 0.00041 s⁻¹.

For C8U A36G C50A G51A C68U C70A, the “self-cleavage kobs at 640 uM GlcN6P” value was 4.39e-05 ± 3.2e-05 s⁻¹.

Variants of B1 are the subject of the next data set. Put plainly: KM; higher = weaker cofactor use; RNA array. To be noted: with glucosamine-6-phosphate. In short, it runs like this: as §1
With A53G U54C, the Michaelis-Menten constant (KM) (as a rule, the concentration of substrate that gives half-maximal velocity) was 1810 ± 1300 µM.

Turning to C11U G29A, the KM is 4190 ± 1400 µM.

For A52U U56G, the KM was found to be 5090 ± 2000 µM.

A15G G41A: the Michaelis constant (KM) turned out to be 958 ± 680 µM.

C16G G29U C71U: the Michaelis-Menten constant (KM) is 1840 ± 1500 µM.

For the variant G9A U45A, the Michaelis constant (KM) amounted to 1260 ± 770 µM.

On to U30C U31C, for which the KM was found to be 3460 ± 3000 µM.

C16G A42G: the Michaelis-Menten constant (KM) came out at 3620 ± 3000 µM.

Take A6U U45G: the KM was determined as 33700 ± 8700 µM.

In the case of A6G U55A C68G, the Michaelis constant (KM) stood at 55.6 ± 52 µM.

Take A12G U69A: the KM amounted to 669 ± 570 µM.

G9A A12G: the KM was 91.6 ± 72 µM.

As for G9A A12U, the Michaelis-Menten constant (KM) was 12500 ± 1300 µM.

Take G29U A39U: the KM came to 4390 ± 3000 µM.

As for C10U U55C, the Michaelis-Menten constant (KM) was 8450 ± 4700 µM.

C11U G66A U69A: the KM came to 278 ± 200 µM.

In the case of A14G C67A, the Michaelis constant (KM) is 805 ± 790 µM.

In the case of A15G A53G, the Michaelis constant (KM) was determined as 2140 ± 1600 µM.

As to U47A U54C, the Michaelis constant (KM) came out at 2860 ± 2700 µM.

Regarding A12C U45C, the KM worked out at 7280 ± 3000 µM.

For C16U C58A, the Michaelis-Menten constant (KM) was determined as 9960 ± 8200 µM.

For A12U A15C, the KM turned out to be 246 ± 180 µM.

With A12U A15G, the KM came to 534 ± 290 µM.

Consider A12C C70U, for which the Michaelis-Menten constant (KM) was found to be 1900 ± 1200 µM.

Turning to A6C U47A, the Michaelis constant (KM) turned out to be 6300 ± 770 µM.

For A6U U54A, the Michaelis-Menten constant (KM) was 1270 ± 830 µM.

Consider A12U A15U A39C, for which the KM was determined as 910 ± 550 µM.

Regarding U47A U55A, the Michaelis constant (KM) turned out to be 701 ± 480 µM.

In the case of U47A U55G, the Michaelis constant (KM) was 2570 ± 1800 µM.

With C16U U56G, the KM stood at 3010 ± 2800 µM.

Regarding G29C C71G, the KM stood at 218 ± 160 µM.

C16U U30G: the KM was 12700 ± 9400 µM.

Turning to A12U A36U, the KM was 2080 ± 230 µM.

For G7A U45A, the KM came out at 1050 ± 660 µM.

As for G41C C67U C70A, the KM stood at 9730 ± 3700 µM.

C11A G62A: the KM worked out at 130 ± 120 µM.

Variants of B1 are the subject of a further data set. The data set is described as follows: self-cleavage kobs at 2500 uM GlcN6P; higher = faster cleavage; RNA array. The conditions noted are these: with glucosamine-6-phosphate. In short, it runs like this: as §1
As for A53G U54C, the “self-cleavage kobs at 2500 uM GlcN6P” value was found to be 0.004 ± 0.0032 s⁻¹.

Consider A52G C61U C68G, for which the “self-cleavage kobs at 2500 uM GlcN6P” value stood at 3.79e-05 ± 1.9e-05 s⁻¹.

As for C16G A42G, the “self-cleavage kobs at 2500 uM GlcN6P” value amounted to 0.00269 ± 0.0018 s⁻¹.

Consider A14C U57A U69A, for which the “self-cleavage kobs at 2500 uM GlcN6P” value came out at 2.5e-05 ± 2.1e-05 s⁻¹.

With A6C U47A, the “self-cleavage kobs at 2500 uM GlcN6P” value turned out to be 2.93e-05 ± 1.6e-05 s⁻¹.

On to G7A U45A, for which the “self-cleavage kobs at 2500 uM GlcN6P” value is 2.42e-05 ± 2.1e-05 s⁻¹.

In the next data set the parent is B1. The data set is described as follows: self-cleavage kobs at 160 uM GlcN6P; higher = faster cleavage; RNA array. The conditions noted are these: with glucosamine-6-phosphate. The procedure, abridged: as §1
As to C11U G29A, the “self-cleavage kobs at 160 uM GlcN6P” value was 2.5e-05 ± 1.3e-05 s⁻¹.

With A36C U69A, the “self-cleavage kobs at 160 uM GlcN6P” value was 3.42e-05 ± 2e-05 s⁻¹.

Take C8U A36G C50A G51A C68U C70A: the “self-cleavage kobs at 160 uM GlcN6P” value came out at 2.87e-05 ± 2.5e-05 s⁻¹.

Turning to A53G C67A, the “self-cleavage kobs at 160 uM GlcN6P” value was 0.000298 ± 0.00015 s⁻¹.

In another data set the parent is B1. Put plainly: self-cleavage kobs at 10000 uM GlcN6P; higher = faster cleavage; RNA array. To be noted: with glucosamine-6-phosphate. In short, it runs like this: as §1
C50G U55A: the “self-cleavage kobs at 10000 uM GlcN6P” value stood at 2.01e-05 ± 1.8e-05 s⁻¹.

As for A6G U55A C68G, the “self-cleavage kobs at 10000 uM GlcN6P” value was found to be 2.36e-05 ± 2e-05 s⁻¹.

U47A U54C: the “self-cleavage kobs at 10000 uM GlcN6P” value turned out to be 0.0222 ± 0.018 s⁻¹.

Regarding G35U C50G, the “self-cleavage kobs at 10000 uM GlcN6P” value came to 2.22e-05 ± 1.2e-05 s⁻¹.

In the case of A12U A36U, the “self-cleavage kobs at 10000 uM GlcN6P” value stood at 1.68e-05 ± 1.5e-05 s⁻¹.

These data come from the supplement of paper PMC7125110.
